# Experimental data reported in patent US20250376498A1, “FUSION PROTEINS COMPRISING AN IMPROVED GLP-1 RECEPTOR AGONIST AND USES THEREOF” (Guangzhou Innogen Pharmaceutical Group Co., Ltd., priority 2022, published 2025).
# Test: K34 (+16 Da) hydroxylation level by Lys-C LC-MS/MS peptide mapping, UV280 and EIC
# Type: physicochemical
substance,measurement,setting,value
Dulaglutide: DPP-IV protected GLP-1 analog fused with an IgG4/Fc fragment,EIC Ratio (%) of +16Da modified peptide 21-28 EFIAWLVK (K34 modification level),EIC method,4.4%
same,UV280 Ratio (%) of +16Da modified peptide 21-28 EFIAWLVK (K34 modification level),UV280 method,8.2%
